Results: patent US20210139568A1
No constants are given. Whether binding was seen depends on the method and setting. Some entries that bind do so weakly or less than the wild type.

Sequences of proteins named here, by UniProt entry; tags and fusion partners are left off. A change or cut given only in a name is not applied to a line headed by its entry. A line that says so, or that is headed by a name, gives the form on record, which may keep a tag or linker.
insoluble tau isolated from corticobasal degeneration (CBD) brain (P10636, form named): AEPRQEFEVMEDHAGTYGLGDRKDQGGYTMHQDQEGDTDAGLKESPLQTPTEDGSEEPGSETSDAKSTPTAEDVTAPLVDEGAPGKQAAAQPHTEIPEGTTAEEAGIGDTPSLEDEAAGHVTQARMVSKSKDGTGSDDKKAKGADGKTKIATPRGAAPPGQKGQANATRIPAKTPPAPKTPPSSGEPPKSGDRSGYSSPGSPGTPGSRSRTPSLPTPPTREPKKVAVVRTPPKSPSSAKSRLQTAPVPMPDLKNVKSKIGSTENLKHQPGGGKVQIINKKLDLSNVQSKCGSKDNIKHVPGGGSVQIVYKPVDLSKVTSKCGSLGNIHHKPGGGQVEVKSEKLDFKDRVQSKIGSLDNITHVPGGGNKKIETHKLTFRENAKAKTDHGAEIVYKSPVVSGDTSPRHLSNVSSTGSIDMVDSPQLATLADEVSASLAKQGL
fetal rat tau (P19332, form named): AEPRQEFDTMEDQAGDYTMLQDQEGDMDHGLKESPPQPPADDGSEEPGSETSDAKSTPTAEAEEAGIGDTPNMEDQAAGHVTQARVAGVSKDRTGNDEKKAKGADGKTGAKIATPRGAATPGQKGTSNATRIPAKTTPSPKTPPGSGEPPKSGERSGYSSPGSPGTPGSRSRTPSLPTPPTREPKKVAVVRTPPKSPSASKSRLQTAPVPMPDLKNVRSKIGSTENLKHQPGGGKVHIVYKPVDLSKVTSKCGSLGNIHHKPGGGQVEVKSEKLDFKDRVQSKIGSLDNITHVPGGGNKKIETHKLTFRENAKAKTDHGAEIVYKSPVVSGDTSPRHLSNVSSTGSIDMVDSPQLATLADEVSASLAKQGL

Key:
[1] = target: insoluble tau isolated from FTD brain (human) (UniProt P10636); experiment: immunoblot of insoluble tau from FTD brain
fetal rat tau (rat) = fetal rat tau (rat) (UniProt P19332); experiment: immunoblot
[2] = target: sarcosyl-insoluble tau (PHF-tau) isolated from human Alzheimer's disease brain (human) (UniProt P10636); experiment: immunoblot
[3] = target: sarcosyl-insoluble tau (PHF-tau) isolated from human Alzheimer's disease brain (human) (UniProt P10636); experiment: hybridoma screening ELISA on coated PHF-tau
[4] = target: sarcosyl-insoluble tau (PHF-tau) isolated from human Alzheimer's disease brain (human) (UniProt P10636); experiment: immunoblot of insoluble tau from AD brain (Braak stage V)
[5] = target: insoluble tau isolated from corticobasal degeneration (CBD) brain (human) (UniProt P10636); experiment: immunoblot of insoluble tau from CBD brain

Measured: binding

B1: monoclonal antibody DC2E7 (antibody, mouse IgG2a, V domains shown)
VH: DVQLVESGGGLVQPGGSRKLSCAASGFTFSSFGMHWVRQAPEKGLEWVAYISGDSNTIYYADTVKGRFTISRDNPKNTLFLQMTSLRSEDTAIYYCARTLAYWGQGTLVTVS
VL: DIQMTQSSSSFSVSLGDRVTITCKASEDIYNRLAWYQQTPGNAPSLLISGASGLETGVPSRFSGSGSGRDYTLSITSLQTEDVATYYCLQYWSIPWTFGGGTKLEIKR
binds: all assays above
